Here are results for 14 molecules from publication PMC1712231.

Chains of the proteins cited; added tags and fusions are not shown.
UniProt O43581: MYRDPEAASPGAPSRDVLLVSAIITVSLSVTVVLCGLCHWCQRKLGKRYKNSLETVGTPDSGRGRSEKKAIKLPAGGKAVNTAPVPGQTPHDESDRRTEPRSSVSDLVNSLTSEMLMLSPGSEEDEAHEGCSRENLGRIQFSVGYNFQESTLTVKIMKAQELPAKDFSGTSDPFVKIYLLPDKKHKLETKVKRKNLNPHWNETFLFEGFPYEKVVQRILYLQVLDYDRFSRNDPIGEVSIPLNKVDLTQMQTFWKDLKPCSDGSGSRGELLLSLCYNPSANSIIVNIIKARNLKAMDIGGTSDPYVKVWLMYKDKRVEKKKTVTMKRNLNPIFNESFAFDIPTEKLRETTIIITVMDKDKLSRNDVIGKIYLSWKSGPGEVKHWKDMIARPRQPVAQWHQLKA
UniProt Q9UKL4: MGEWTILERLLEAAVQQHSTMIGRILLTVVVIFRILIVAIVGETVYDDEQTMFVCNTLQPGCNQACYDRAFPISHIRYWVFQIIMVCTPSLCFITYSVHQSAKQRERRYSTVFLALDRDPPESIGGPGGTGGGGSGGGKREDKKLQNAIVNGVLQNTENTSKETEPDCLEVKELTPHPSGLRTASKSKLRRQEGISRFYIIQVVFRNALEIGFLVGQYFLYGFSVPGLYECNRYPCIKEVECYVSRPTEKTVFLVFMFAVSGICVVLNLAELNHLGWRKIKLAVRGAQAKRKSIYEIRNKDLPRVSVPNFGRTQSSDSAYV
UniProt Q9Y6V0: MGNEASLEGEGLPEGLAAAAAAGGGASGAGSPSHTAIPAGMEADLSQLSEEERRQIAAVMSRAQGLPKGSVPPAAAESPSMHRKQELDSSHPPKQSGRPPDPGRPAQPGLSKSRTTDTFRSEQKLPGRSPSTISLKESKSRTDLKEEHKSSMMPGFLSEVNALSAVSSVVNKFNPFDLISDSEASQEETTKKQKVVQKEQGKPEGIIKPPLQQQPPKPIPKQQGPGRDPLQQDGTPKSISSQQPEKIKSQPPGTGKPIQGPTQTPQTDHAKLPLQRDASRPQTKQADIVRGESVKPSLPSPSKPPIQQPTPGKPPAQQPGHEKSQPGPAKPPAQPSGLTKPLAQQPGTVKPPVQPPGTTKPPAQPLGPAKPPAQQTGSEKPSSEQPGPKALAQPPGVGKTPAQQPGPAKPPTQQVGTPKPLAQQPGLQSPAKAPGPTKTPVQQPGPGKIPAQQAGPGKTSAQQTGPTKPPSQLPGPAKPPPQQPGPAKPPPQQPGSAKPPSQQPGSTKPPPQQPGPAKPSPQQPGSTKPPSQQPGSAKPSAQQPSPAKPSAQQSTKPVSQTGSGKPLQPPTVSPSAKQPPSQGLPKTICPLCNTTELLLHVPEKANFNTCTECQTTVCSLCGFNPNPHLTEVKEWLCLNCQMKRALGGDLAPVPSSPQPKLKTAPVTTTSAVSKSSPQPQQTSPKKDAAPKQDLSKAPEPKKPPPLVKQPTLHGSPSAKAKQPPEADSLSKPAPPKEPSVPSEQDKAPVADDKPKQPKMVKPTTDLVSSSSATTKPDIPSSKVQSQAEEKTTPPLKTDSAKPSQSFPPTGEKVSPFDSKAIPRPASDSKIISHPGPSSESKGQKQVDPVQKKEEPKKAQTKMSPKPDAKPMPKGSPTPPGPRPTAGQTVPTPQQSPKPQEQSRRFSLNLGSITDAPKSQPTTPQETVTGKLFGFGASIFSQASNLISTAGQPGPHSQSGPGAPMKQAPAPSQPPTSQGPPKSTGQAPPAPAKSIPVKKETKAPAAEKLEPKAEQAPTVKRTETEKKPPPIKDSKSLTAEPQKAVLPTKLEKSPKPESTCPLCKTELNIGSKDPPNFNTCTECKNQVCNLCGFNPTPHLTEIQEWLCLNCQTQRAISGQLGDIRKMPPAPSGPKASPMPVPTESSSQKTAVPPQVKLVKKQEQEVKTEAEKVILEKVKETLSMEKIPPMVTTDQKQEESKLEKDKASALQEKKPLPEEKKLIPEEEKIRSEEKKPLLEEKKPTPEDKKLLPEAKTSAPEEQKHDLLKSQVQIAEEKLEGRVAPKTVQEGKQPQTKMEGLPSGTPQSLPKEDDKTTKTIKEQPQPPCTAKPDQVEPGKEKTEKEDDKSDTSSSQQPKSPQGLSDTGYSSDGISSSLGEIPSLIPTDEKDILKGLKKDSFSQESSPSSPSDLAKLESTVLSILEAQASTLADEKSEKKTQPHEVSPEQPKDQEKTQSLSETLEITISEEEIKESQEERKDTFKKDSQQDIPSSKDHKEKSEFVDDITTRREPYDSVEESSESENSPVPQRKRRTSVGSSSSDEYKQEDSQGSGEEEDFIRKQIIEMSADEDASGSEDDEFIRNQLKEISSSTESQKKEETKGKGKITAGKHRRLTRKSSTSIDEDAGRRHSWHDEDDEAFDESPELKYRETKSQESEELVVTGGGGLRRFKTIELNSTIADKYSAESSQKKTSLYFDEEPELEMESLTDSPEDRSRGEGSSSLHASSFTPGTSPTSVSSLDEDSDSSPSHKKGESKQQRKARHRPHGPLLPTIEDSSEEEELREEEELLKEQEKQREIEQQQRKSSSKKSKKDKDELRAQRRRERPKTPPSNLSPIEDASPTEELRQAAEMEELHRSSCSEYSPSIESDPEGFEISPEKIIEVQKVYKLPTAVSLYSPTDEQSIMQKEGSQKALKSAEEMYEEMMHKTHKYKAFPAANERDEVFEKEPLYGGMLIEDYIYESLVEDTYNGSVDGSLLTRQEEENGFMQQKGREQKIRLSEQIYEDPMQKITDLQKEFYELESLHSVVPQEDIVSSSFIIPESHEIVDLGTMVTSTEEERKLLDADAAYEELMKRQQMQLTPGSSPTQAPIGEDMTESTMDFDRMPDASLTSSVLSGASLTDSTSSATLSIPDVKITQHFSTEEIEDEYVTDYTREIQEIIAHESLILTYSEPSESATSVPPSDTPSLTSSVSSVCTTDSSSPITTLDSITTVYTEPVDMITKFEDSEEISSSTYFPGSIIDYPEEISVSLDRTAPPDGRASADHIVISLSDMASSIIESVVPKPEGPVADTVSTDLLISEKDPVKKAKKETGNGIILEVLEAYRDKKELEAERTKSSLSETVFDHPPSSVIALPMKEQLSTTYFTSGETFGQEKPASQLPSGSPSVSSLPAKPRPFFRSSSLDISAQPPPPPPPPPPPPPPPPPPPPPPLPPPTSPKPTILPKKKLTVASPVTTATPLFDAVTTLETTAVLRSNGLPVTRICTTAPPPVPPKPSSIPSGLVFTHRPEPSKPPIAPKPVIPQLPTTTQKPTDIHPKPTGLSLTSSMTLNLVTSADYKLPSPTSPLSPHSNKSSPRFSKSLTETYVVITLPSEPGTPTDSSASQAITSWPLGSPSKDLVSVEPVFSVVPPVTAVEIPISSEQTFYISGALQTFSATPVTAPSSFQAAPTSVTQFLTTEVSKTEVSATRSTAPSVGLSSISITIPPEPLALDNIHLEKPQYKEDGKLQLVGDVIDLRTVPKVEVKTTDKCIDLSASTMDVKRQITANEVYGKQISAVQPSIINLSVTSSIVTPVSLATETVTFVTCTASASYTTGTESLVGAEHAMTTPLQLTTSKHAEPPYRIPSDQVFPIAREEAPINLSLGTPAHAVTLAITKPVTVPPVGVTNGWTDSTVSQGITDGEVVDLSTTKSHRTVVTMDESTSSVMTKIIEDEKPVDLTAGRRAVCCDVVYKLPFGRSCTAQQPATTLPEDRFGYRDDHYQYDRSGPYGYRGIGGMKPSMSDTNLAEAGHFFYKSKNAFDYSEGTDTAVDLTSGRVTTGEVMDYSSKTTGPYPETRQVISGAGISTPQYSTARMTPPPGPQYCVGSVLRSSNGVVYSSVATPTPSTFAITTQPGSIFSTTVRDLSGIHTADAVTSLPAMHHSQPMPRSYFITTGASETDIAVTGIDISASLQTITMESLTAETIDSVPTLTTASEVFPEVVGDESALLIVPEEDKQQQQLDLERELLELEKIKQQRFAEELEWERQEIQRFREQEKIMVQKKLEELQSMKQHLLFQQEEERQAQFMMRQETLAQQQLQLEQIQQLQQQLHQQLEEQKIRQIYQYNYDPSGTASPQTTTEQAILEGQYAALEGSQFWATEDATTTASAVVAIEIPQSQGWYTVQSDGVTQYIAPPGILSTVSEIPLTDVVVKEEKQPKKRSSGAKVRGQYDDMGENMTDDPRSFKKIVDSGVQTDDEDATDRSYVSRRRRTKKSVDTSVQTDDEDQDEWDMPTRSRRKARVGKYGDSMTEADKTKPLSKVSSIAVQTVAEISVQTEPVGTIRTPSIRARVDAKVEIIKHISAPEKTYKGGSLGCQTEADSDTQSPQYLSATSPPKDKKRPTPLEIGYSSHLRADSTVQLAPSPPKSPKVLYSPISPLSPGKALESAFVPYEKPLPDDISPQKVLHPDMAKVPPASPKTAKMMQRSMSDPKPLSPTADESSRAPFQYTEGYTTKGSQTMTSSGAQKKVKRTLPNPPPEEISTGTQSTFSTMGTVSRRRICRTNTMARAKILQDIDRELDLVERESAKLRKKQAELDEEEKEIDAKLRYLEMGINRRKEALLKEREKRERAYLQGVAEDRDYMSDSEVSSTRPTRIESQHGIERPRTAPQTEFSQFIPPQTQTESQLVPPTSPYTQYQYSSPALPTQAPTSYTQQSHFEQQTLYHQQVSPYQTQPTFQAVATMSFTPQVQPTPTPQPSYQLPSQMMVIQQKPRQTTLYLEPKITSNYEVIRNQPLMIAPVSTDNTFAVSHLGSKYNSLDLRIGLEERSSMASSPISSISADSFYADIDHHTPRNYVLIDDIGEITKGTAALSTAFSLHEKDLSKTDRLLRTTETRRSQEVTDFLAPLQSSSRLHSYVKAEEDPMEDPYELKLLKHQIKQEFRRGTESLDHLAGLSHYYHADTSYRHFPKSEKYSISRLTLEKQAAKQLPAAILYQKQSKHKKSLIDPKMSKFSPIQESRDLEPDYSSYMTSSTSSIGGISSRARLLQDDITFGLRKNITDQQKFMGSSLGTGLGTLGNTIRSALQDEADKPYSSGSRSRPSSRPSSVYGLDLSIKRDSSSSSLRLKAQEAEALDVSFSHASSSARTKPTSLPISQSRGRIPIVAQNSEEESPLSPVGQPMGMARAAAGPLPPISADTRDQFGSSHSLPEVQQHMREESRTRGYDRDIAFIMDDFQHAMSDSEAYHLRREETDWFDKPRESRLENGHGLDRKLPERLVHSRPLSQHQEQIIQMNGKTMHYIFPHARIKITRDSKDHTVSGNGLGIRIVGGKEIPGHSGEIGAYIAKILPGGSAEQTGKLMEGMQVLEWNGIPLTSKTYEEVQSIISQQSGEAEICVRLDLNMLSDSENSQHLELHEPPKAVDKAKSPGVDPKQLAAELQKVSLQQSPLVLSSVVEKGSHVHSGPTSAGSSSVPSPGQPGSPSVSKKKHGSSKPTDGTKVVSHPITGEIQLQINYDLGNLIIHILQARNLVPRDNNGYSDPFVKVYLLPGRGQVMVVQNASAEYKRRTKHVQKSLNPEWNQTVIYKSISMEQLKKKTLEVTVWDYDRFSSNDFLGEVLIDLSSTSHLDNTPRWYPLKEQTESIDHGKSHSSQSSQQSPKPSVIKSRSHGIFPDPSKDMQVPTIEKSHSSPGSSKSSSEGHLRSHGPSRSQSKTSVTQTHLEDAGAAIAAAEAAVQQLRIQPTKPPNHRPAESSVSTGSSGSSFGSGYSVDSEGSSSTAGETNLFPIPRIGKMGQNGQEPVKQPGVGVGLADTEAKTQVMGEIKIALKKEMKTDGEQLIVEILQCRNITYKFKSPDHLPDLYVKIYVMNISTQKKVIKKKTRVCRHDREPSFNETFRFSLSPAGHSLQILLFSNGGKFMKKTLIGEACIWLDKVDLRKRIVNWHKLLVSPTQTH
UniProt P43003: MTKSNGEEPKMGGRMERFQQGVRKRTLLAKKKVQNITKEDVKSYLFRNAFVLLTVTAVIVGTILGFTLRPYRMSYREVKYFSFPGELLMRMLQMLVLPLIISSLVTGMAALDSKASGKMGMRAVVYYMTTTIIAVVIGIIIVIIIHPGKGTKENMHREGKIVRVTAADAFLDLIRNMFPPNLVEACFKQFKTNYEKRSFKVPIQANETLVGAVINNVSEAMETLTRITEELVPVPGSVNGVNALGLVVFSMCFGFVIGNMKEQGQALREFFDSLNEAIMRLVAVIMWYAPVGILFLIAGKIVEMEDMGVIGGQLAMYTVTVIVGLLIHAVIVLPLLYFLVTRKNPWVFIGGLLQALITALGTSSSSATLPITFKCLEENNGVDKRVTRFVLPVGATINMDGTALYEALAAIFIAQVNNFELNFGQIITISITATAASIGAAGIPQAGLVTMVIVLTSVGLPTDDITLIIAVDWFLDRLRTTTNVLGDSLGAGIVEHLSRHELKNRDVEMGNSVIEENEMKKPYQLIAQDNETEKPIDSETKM

The labels stand for the following.
T1: PKC zeta (human (endogenous in T84)) (UniProt Q05513)
T1 sequence: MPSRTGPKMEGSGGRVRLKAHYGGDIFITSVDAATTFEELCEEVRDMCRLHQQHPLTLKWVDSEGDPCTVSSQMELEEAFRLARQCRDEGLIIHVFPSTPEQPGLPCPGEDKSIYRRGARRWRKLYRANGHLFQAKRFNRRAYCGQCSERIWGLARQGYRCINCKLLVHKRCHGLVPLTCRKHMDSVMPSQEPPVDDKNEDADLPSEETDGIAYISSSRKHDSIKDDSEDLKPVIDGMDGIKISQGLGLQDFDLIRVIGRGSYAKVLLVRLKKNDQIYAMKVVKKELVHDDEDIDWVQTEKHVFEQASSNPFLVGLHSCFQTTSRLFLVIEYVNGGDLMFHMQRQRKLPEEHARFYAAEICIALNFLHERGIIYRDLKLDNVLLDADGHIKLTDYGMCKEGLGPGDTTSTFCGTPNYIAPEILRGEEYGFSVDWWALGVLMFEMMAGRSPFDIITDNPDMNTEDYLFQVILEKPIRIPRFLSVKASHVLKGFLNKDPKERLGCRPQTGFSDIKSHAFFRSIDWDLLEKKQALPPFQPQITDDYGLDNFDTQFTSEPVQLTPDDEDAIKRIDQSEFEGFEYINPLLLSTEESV

B1: voltage-gated potassium channel Kv2.1 (protein, UniProt Q14721 1-858)
chain: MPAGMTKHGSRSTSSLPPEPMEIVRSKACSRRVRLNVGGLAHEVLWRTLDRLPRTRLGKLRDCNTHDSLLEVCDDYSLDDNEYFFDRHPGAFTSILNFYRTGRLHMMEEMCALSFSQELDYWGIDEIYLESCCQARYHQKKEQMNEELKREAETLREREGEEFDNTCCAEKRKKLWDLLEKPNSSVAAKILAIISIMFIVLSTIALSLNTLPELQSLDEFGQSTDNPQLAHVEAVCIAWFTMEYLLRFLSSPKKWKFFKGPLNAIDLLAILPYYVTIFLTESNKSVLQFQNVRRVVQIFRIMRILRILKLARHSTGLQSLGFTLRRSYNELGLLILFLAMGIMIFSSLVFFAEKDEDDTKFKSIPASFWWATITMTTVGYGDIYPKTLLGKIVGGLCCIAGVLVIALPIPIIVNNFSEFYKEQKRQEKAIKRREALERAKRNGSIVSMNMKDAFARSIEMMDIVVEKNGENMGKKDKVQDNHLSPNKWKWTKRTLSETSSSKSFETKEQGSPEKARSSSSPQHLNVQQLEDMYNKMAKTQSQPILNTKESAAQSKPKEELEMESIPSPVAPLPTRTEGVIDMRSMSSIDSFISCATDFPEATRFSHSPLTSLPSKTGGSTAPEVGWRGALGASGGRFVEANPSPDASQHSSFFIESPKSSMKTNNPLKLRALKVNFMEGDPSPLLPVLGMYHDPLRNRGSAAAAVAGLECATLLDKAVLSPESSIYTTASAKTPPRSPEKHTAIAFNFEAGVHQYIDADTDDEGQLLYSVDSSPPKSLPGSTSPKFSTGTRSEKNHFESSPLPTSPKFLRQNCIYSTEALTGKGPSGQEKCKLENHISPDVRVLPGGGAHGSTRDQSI
B2: rabaptin-5 (protein, UniProt Q15276 1-862)
chain: MAQPGPASQPDVSLQQRVAELEKINAEFLRAQQQLEQEFNQKRAKFKELYLAKEEDLKRQNAVLQAAQDDLGHLRTQLWEAQAEMENIKAIATVSENTKQEAIDEVKRQWREEVASLQAVMKETVRDYEHQFHLRLEQERTQWAQYRESAEREIADLRRRLSEGQEEENLENEMKKAQEDAEKLRSVVMPMEKEIAALKDKLTEAEDKIKELEASKVKELNHYLEAEKSCRTDLEMYVAVLNTQKSVLQEDAEKLRKELHEVCHLLEQERQQHNQLKHTWQKANDQFLESQRLLMRDMQRMEIVLTSEQLRQVEELKKKDQEDDEQQRLNKRKDHKKADVEEEIKIPVVCALTQEESSAQLSNEEEHLDSTRGSVHSLDAGLLLPSGDPFSKSDNDMFKDGLRRAQSTDSLGTSGSLQSKALGYNYKAKSAGNLDESDFGPLVGADSVSENFDTASLGSLQMPSGFMLTKDQERAIKAMTPEQEETASLLSSVTQGMESAYVSPSGYRLVSETEWNLLQKEVHNAGNKLGRRCDMCSNYEKQLQGIQIQEAETRDQVKKLQLMLRQANDQLEKTMKDKQELEDFIKQSSEDSSHQISALVLRAQASEILLEELQQGLSQAKRDVQEQMAVLMQSREQVSEELVRLQKDNDSLQGKHSLHVSLQQAEDFILPDTTEALRELVLKYREDIINVRTAADHVEEKLKAEILFLKEQIQAEQCLKENLEETLQLEIENCKEEIASISSLKAELERIKVEKGQLESTLREKSQQLESLQEIKISLEEQLKKETAAKATVEQLMFEEKNKAQRLQTELDVSEQVQRDFVKLSQTLQVQLERIRQADSLERIRAILNDTKLTDINQLPET

These are yes or no findings as the source states them, for the method shown. Binding seen in cells or lysates may run through a third protein. These calls come from enrichment with a bait or labelling near it, and not all partners need be listed. For some assays here: Where a sequence is shown, tags or fusion partners need not be part of it.

For one assay, the target named is T1, PKC zeta (human (endogenous in T84)). Description: affinity purification with mass spectrometry; anti-PKC zeta immuno-isolate from T84 100,000 x g membranes in 2% CHAPS, peptide-eluted; bands of SDS-PAGE from three purifications, in-gel tryptic digestion, MALDI-TOF peptide mass fingerprint (MS-Fit on SwissProt), hits scored by the paper's own ….
As to B1, the binding entry is “binds”. Still for that read-out and setting: for B2 the value was “binds”.

The target is the same in a further assay. Described as above. The source holds these as a separate data set.
“metabotropic glutamate receptor 5 (from UniProt P41594 21-1212)”: the binding entry was “binds”. On the same count and under the same terms, the same measure for “NMDA glutamate receptor zeta subunit (from UniProt Q05586 19-938)”: “binds”.

On to “synaptotagmin VII (from UniProt O43581 1-403)”, for which the binding result was “binds”.

Turning to “metabotropic glutamate receptor 1 (from UniProt Q13255 19-1194)”, the binding result is given as “binds”. The same measure, in the same setting: for STAT2 (from UniProt P52630 1-851) the value was “binds”; for connexin 36 (from UniProt Q9UKL4 1-321), “binds”; for piccolo (from UniProt Q9Y6V0 1-5142), “binds”. The same measure, in the same setting: the same measure for Hsc70 (from UniProt P11142 1-646): “binds”; for EAAT1 (from UniProt P43003 1-542): “binds”; for GRIP1 (from UniProt Q9Y3R0 1-1128): “binds”. On the same count and under the same terms, the same measure for “ERK3 (from UniProt Q16659 1-721) (enzyme)”: “binds”.

On to Homer (human (endogenous in T84)), for which the binding result is “binds”.
